Source: article PMC6814715
These are yes or no findings as the source states them, for the method shown. In cells and extracts the contact can be indirect. Some binding calls cover weakened binding; strength is not graded here. For part of these data: Where a sequence is shown, tags or fusion partners need not be part of it.

Chains of the proteins cited; added tags and fusions are not shown.
UniProt O95271: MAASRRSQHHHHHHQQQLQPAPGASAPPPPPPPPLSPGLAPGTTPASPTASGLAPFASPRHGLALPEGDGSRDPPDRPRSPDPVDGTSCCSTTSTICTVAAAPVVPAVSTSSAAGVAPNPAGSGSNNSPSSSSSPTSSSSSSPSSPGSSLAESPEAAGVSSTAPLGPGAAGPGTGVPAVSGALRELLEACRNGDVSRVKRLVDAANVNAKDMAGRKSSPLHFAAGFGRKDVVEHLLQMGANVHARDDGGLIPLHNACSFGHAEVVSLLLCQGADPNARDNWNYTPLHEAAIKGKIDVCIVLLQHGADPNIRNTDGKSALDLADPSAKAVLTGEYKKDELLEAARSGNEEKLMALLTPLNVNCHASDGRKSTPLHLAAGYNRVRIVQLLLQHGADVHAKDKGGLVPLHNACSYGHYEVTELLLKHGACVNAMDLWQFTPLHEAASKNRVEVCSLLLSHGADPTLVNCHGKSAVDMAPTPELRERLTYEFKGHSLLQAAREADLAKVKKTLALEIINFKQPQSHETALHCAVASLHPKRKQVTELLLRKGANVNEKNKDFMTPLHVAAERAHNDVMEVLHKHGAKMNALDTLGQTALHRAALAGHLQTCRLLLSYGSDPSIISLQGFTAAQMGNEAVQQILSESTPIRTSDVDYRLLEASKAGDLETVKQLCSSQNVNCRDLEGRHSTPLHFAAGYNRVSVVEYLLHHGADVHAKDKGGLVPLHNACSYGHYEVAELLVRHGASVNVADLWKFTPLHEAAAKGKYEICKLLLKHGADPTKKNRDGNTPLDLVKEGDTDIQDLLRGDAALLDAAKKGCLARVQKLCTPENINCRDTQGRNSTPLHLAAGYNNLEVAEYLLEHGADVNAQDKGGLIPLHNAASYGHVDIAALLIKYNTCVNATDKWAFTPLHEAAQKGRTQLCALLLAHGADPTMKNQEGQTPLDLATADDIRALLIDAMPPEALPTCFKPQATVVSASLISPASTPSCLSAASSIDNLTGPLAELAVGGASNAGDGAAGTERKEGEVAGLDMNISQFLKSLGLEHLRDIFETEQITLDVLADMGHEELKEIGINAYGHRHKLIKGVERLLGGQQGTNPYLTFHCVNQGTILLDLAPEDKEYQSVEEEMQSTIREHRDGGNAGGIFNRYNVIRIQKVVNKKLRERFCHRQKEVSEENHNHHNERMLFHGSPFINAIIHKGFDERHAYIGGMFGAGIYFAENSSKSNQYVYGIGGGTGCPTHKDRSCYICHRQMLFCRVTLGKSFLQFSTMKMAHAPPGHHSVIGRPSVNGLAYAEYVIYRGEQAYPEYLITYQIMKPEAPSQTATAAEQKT
UniProt P48436: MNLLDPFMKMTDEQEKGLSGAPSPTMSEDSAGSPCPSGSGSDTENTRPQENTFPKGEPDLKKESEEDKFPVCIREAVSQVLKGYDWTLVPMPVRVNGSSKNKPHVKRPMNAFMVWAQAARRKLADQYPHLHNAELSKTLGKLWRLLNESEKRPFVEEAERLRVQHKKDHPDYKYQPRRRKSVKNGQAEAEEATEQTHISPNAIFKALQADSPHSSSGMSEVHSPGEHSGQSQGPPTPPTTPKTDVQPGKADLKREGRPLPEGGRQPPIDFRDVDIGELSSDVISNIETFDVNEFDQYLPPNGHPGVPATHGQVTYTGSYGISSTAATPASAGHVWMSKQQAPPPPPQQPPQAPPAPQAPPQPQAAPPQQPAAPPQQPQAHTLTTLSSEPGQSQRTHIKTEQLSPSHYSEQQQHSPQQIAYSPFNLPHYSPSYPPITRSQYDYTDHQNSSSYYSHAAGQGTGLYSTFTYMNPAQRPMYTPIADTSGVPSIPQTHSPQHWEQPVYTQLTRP

Experiments:
Assay in all cases: co-IP; tagged proteins expressed in HEK293T cells ('pull-down assays'); lysates in EBC200 buffer (50 mM Tris-HCl pH 7.4, 150 mM NaCl, 0.5% NP-40, 1 mM EDTA), pull-down with the indicated antibodies and protein A/G-Sepharose beads; which partner was precipitated is not told
[1] = biological target: T1, Myc-tagged human TNKS2 (human) (UniProt Q9H2K2)
T1 sequence: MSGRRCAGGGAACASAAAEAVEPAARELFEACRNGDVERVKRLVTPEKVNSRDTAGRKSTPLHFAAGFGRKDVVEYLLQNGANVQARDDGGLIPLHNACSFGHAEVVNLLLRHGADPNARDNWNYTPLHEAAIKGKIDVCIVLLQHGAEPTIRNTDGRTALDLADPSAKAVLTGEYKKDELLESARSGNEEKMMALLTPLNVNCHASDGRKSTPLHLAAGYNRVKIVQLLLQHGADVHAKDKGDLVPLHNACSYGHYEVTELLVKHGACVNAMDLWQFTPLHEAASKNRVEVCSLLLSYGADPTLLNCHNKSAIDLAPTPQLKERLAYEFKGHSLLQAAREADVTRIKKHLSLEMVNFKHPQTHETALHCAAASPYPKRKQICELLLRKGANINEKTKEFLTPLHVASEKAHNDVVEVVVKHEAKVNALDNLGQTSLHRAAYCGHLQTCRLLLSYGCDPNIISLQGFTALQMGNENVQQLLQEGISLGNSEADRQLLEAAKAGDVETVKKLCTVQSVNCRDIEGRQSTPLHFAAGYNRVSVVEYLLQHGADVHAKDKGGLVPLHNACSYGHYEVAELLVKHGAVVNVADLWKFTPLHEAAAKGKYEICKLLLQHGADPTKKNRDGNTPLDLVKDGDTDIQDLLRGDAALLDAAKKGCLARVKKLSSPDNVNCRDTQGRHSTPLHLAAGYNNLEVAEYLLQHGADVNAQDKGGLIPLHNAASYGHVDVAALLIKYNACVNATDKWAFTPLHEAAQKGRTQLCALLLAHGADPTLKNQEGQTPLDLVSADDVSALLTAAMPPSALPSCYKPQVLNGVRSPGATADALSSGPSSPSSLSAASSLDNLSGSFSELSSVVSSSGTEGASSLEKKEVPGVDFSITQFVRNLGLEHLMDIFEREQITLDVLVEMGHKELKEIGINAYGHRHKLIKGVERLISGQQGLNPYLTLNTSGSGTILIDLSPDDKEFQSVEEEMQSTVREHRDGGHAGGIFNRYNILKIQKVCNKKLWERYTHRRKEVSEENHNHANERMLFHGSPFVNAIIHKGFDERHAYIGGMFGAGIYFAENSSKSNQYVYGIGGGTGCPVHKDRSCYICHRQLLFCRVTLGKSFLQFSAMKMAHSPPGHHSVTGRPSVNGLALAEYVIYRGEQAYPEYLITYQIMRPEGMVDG

[2] = biological target: GFP-tagged human TNKS (human) (UniProt O95271)
[3] = biological target: T2, GFP-tagged human TNKS2 (human) (UniProt Q9H2K2)
T2 sequence: T1 sequence

Measured: binding

HA-tagged wild-type human SOX9 (from UniProt P48436 1-509)
binds: all assays above
